Experimental data taken from patent US20200024365A1.
No constants are given. Whether binding was seen depends on the method and setting. Some entries that bind do so weakly or less than the wild type.

Protein sequences, listed by entry. Tags and fused reporters are not part of them.
UniProt Q9UBN7: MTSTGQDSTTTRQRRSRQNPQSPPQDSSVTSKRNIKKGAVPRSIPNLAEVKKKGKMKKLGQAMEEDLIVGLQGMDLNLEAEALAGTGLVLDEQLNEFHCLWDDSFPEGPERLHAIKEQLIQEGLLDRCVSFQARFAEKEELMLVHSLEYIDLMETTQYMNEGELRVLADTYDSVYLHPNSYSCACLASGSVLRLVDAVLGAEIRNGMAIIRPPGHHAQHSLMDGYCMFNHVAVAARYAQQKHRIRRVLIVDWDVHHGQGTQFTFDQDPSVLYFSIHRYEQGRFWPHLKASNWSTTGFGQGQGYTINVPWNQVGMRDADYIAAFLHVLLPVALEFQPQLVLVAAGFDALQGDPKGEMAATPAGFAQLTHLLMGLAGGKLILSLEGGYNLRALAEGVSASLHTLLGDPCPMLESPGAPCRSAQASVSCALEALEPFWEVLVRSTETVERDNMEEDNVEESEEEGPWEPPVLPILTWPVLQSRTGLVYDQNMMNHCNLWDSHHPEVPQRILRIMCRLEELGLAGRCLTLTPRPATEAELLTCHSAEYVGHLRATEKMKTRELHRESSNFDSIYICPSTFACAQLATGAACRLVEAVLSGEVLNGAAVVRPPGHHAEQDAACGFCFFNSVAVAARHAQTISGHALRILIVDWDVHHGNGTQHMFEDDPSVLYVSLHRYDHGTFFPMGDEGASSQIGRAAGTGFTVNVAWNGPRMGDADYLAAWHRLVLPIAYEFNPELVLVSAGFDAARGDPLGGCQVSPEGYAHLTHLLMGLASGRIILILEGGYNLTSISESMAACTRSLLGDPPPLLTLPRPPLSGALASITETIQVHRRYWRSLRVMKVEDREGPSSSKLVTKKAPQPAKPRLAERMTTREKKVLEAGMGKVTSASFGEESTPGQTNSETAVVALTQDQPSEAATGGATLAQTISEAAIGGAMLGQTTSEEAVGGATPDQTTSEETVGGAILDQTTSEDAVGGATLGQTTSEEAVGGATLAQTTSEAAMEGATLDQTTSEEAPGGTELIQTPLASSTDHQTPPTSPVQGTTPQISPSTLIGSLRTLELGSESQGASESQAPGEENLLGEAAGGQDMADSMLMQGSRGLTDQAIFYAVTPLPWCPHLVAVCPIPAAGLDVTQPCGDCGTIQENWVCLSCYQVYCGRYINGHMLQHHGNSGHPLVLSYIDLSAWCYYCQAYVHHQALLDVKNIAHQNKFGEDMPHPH

B1: SEQ ID NO 2 (VHH)
VHH: VQLQESGGGSVQAGGSLTLSCVCSGYIPSKAWFRQAPGKEREAVAAIDGPGRIRYVDSVNGRFTISQDIVKKTLVLEMNSLKPEDTAMYYCAADPRLSTNNWSRAPEYRYWGQGTQVTVSS
B2: SEQ ID NO 3 (VHH)
VHH: ESGGGLVQPGGSLRLSCAASGFTFSNYAMEWVRQAPGKGLEWVSGINSGGIGTYYADSVKGRFTISRDNAKNTLYLQLNSLKTEDTAMYYCAKGYGNMVVAGITSNYRGQGTQVTVSS
B3: SEQ ID NO 5 (VHH)
VHH: ESGGGSAQAGGSLRLSCPASGLTSSTACLAWFRQAPGKEREGVARIRSLFGSTWYADSVKGRFTISQDTTKNMLYLQMDSLKPEDTAMYYCAAGRTGVCYSGSWSPDEFNYWGQGTQVTVSS
B4: SEQ ID NO 8 (VHH)
VHH: ESGGGSVQAGGSLRLSCAASGYTYSSTYMAWFRQAPGKEREGVASIYTGDGWTYYANSVKGRFTISRDNAKNTVYLQMNSLKPEDTAMYYCAAKTRAVGGTWSSPNIYTYWGQGTQVTVSS
B5: SEQ ID NO 11 (VHH)
VHH: VQLQESGGGSVQAGGSLRLSCAASTYAYSSTYMAWFRQAPGKEREGVASIYTGDGWTYYANSVKGRFTISRDNAKNTVYLQMNSLKPEDTAMYYCAAKTRAVGGTWSSPNIYTYWGQGTQVTVSS
B6: SEQ ID NO 12 (VHH)
VHH: VQLQESGGGSVQAGGSLRLSCAASVYRRHNYCMGWFRQRPGKEREEIAIFDRGDSTSYADSVKGRFTISQDNAKNMLYLQMNSLKPEDTAMYYCATSYPRVVIGTCTGGDFRVWGQGTQVTVSS
B7: SEQ ID NO 14 (VHH)
VHH: VQLQESGGGSVQAGGSLRLSCATSGFPFSTYCMGWFRQVPGKEREGVAGIYISHGQTYYADSVKGRFTISRDDKKKTLYLQMEALNPEDTAMYYCAAGDRWYCPADSWSRPERYPFWGQGTQVTVSS
B8: SEQ ID NO 15 (VHH)
VHH: VQLQESGGGSVQAGGSLRLSCAASGFTFSMNGMSWVRQAPGKGLEWVSAITTGGSVATYADSVKGRFTISRDNAKNTLYLQMNNLKTEDTAVYYCATGNQRRPAQHVGVWGQGTQVTVSS
B9: SEQ ID NO 16 (VHH)
VHH: VQLQESGGGSVQAGGSLRLSCTASGYTSSMGWFRQAPGKEREGVAAIGIVNAVYADSVKGRFTISKDNAEYTLYLQMNSLKPEDTAMYYCAAVRRLQKKNQLASDEYMYWGQGTQVTVSS

How the values were obtained:
HDAC6-WT [1] = target: HDAC6-WT (UniProt Q9UBN7); experiment: ELISA, purified nanobody on plate coated with HDAC6-WT, anti-HA detection, OD405
HDAC6-WT [2] = target: HDAC6-WT (UniProt Q9UBN7); experiment: ELISA (legend of FIG. 5)

Binder | binding (HDAC6-WT [1]) | binding (HDAC6-WT [2])
B1 | binds | binds
B2 | binds | binds
B3 | binds | binds
B4 | binds | binds
B5 | binds | binds
B6 | binds | binds
B7 | binds | binds
B8 | binds | binds
B9 | binds | binds
